Test results as given in patent publication US20240415808A1, “Dosage Regimen for Fexuprazan Injection Composition” (Daewoong Pharmaceutical Co., Ltd., priority 2021, published 2024).
The name of at least one read-out is uncertain.

Assay: single intravenous dose-escalation clinical trial, pharmacokinetics
Type: in vivo, human
Settings: healthy adults
Description: In order to confirm the safety/PK/PD of the compound of the present invention during intravenous administration, the clinical trial was designed with random assignment, double-blind, placebo-controlled, single dose, and stepwise dose-escalation in healthy adults (Korean/Chinese) between the ages of 19 and 50.
A stabilizer (200 mg), a freeze-drying auxiliary agent (200 mg), and the previously prepared fexuprazan hydrochloride (40 mg based on fexuprazan weight) were dissolved in water for injection (4 mL), and an appropriate amount of acid was added thereto to adjust the pH to 4.0. The prepared solution was put into a vial, dried by a freeze-drying method, and prepared as a freeze-drying agent.
The freeze-dried composition prepared as above was used, but a total of 28 subjects of 4, 8, 8, and 8 subjects each were enrolled for four dose groups (10 mg, 20 mg, 40 mg, and 80 mg) based on fexuprazan weight, and each group was randomly assigned to test or control groups in the order that they passed the screening criteria at a ratio of 3:1. All test subjects completed safety, pharmacokinetic, and pharmacodynamic evaluations according to the planned clinical trial schedule.
The medication was performed in the morning, and the patient was discharged from the hospital on the third day of medication. Subsequently, a close-out visit was performed between the 8th and 11th day of medication.
Testing of the acidity (pH) in the gastrointestinal tract and gastric secretion promoting hormone gastrin were performed from 24 hours before medication to 24 hours after medication. Blood collection for pharmacokinetics and urine collection for pharmacokinetics were performed for 48 hours from the time of medication.
After a single intravenous administration of four dose groups for fexuprazan, the dose proportionality of fexuprazan to the Cmax, AUClast, and AUCinf parameters was evaluated between doses of 10 mg and 80 mg. The log-transformed parameters and 95% confidence interval regression lines of each dose after a single administration are shown in Table 7 and FIG. 3, respectively. […] That is, it can be confirmed that the pK parameter of intravenous administration is proportional to the dose.
Table 8 and FIG. 4 show the results of the Kruskal Wallis test for dose-normalized Cmax (Cmax/Dose), AUClast (AUClast/Dose), and AUCinf (AUCinf/Dose) between dose groups. […] That is, it can be seen that there is no significant difference between dose groups in the proportional relationship, and the appropriate dose for intravenous administration can be calculated indirectly through the appropriate dose for oral administration.

CNCc1cn(S(=O)(=O)c2cccc(F)c2)c(-c2ccc(F)cc2F)c1OC [Fexuprazan, 1-(5-(2,4-difluorophenyl)-1-((3-fluorophenyl)sulfonyl)-4-methoxy-1H-pyrrol-3-yl)-N-methylmethanamine]
Vd/F (single intravenous 10 mg): 553 ± 120 L | Vd/F (single intravenous 20 mg): 498 ± 134 L | Vd/F (single intravenous 40 mg): 476 ± 74.3 L | Vd/F (single intravenous 80 mg): 496 ± 88.5 L
